Reference: US20240052038A1
No constants are given. Whether binding was seen depends on the method and setting. Some binding calls cover weakened binding; strength is not graded here. Tags and fused reporters may be left off the sequences shown.

Key:
[1] = target: cynomolgus monkey PD-L1 on blood T lymphocytes (cynomolgus monkey) (UniProt G7PSE7); experiment: receptor occupancy on blood T lymphocytes by flow cytometry, cynomolgus monkeys, single IV 13 mg/kg
[2] = target: cynomolgus monkey PD-L1 on blood T lymphocytes (cynomolgus monkey) (UniProt G7PSE7); experiment: in vivo receptor occupancy on blood T lymphocytes of cynomolgus monkeys after a single IV infusion of 13 mg/kg; flow cytometry of PBMC; serum concentration by reverse ELISA on the same time axis

binding [1]: binds
binding [2]: binds
B1: Variant 4-G09 (Fc effector null-H315A + H440Q) (antibody, human IgG1, kappa, L234A L235A)
heavy: EVQLVESGGGLVQPGRSLRLSCAASGFTFDDYAMHWVRQTPGKGLEWVSGISWKSNIIGYADSVKGRFTISRDNAKNSLYLQMNSLRAEDTALYYCARDITGSGSYGWFDPWGQGTLVTVSSASTKGPSVFPLAPSSKSTSGGTAALGCLVKDYFPEPVTVSWNSGALTSGVHTFPAVLQSSGLYSLSSVVTVPSSSLGTQTYICNVNHKPSNTKVDKRVEPKSCDKTHTCPPCPAPEAAGGPSVFLFPPKPKDTLMISRTPEVTCVVVDVSHEDPEVKFNWYVDGVEVHNAKTKPREEQYNSTYRVVSVLTVLAQDWLNGKEYKCAVSNKALPAPIEKTISKAKGQPREPQVYTLPPSREEMTKNQVSLTCLVKGFYPSDIAVEWESNGQPENNYKTTPPVLDSDGSFFLYSKLTVDKSRWQQGNVFSCSVMHEALHNQYTQKSLSLSPG
light: DIQMTQSPSSLSASVGDRVTITCRASQSISSYLNWYQQKPGKAPKPLIYVASSLQSGVPSSFSGSGSGTDFTLTISSLQPEDFATYYCQQSYSNPITFGQGTRLEIKRTVAAPSVFIFPPSDEQLKSGTASVVCLLNNFYPREAKVQWKVDNALQSGNSQESVTEQDSKDSTYSLSSTLTLSKADYEKHKVYACEVTHQGLSSPVTKSFNRGEC
